Source: paper PMC12053477
Results are given in words; binding and its absence hold for the method and conditions named. Some results given as binding are weak or reduced against the parent protein; the word gives no strength.

The chains behind the UniProt entries cited, without tags or fusion partners.
UniProt Q9NRG4: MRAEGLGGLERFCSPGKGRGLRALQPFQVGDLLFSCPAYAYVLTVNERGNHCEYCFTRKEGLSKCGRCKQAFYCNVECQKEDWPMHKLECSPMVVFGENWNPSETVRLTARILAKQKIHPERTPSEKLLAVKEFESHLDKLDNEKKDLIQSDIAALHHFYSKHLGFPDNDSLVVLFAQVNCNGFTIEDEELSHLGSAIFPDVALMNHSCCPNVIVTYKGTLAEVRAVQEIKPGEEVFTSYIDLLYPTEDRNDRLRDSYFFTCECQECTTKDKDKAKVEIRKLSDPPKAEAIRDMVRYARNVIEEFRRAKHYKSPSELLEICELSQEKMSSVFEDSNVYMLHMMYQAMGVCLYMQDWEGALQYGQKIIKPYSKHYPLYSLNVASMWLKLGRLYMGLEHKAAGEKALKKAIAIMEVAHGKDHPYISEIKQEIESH

Target: T1, EOMES (human (endogenous in endoderm cells derived from H9 hPSCs)) (UniProt O95936)
T1 sequence: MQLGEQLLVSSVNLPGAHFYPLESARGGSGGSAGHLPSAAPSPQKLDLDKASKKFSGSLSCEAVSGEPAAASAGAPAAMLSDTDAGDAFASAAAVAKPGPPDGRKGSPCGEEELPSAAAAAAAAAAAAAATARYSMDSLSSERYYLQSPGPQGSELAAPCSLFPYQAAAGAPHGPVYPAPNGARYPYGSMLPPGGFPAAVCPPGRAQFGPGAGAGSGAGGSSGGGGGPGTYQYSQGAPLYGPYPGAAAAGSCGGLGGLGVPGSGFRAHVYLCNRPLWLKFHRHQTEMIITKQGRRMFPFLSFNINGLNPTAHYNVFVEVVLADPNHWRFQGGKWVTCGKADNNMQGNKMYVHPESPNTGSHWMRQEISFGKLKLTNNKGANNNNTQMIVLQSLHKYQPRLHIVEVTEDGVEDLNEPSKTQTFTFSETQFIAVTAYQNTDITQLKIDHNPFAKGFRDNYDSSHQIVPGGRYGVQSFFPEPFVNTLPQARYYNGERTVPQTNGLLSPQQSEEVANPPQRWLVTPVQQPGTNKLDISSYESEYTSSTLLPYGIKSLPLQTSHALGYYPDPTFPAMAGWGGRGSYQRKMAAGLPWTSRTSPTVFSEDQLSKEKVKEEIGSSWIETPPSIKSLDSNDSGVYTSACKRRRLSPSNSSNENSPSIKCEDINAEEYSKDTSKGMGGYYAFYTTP
Assay: sequential ChIP; sequential ChIP with antibodies to the two endogenous proteins in Day 2 endoderm cells, formaldehyde cross-linked chromatin, read out by Q-PCR on CDKI loci; IgG as first ChIP for control

binding: binds
Substance: SMYD2 (from UniProt Q9NRG4 1-433) (enzyme)
